Source: the supplement of paper PMC7661543
± gives the standard deviation of the averaged measurements. Differences between knockout arms are mostly noise.

Test system: HCC-38
Experiment: relative cell number vs DMSO control (72 h) (% of DMSO); higher = less growth inhibition (more cells)
Procedure: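 QMAP-Seq: a pool of 5 breast cancer cell lines (ZR-75-1, SKBR3, HCC-38, MDA-MB-231, BT-20), each carrying 12 doxycycline-inducible Cas9 sgRNA perturbations (11 knockouts plus non-targeting sgNT), was treated with compounds for 72 h at four 10-fold doses (10 nM-10 uM or 1 nM-1 uM range). Barcodes were amplified and sequenced, and cell number was interpolated from 293T spike-in standard curves. The result is expressed as % of the median of DMSO wells. Two biological replicates.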

O=C1CCC(N2C(=O)c3ccccc3C2=O)C(=O)N1 (configuration not stated) [Thalidomide]
Conditions | relative cell number
sgRNA knockout: sgATF3, 10 nM | 115 ± 4.9
sgRNA knockout: sgATF3, 100 nM | 90.5 ± 5.2
sgRNA knockout: sgATF3, 1000 nM | 126 ± 5.9
sgRNA knockout: sgATF3, 10000 nM | 109 ± 3.6
sgRNA knockout: sgATF4, 10 nM | 109 ± 9.1
sgRNA knockout: sgATF4, 100 nM | 95 ± 1.8
sgRNA knockout: sgATF4, 1000 nM | 125 ± 5.7
sgRNA knockout: sgATF4, 10000 nM | 115 ± 27
sgRNA knockout: sgATF6, 10 nM | 130 ± 10
sgRNA knockout: sgATF6, 100 nM | 94.9 ± 14
sgRNA knockout: sgATF6, 1000 nM | 141 ± 28
sgRNA knockout: sgATF6, 10000 nM | 134 ± 4.2
sgRNA knockout: sgATG7, 10 nM | 105 ± 3.9
sgRNA knockout: sgATG7, 100 nM | 93.1 ± 3.9
sgRNA knockout: sgATG7, 1000 nM | 124 ± 1.1
sgRNA knockout: sgATG7, 10000 nM | 125 ± 22
sgRNA knockout: sgERN1, 10 nM | 106 ± 1.1
sgRNA knockout: sgERN1, 100 nM | 94.5 ± 5
sgRNA knockout: sgERN1, 1000 nM | 123 ± 13
sgRNA knockout: sgERN1, 10000 nM | 128 ± 16
sgRNA knockout: sgHSF1, 10 nM | 142 ± 1.7
sgRNA knockout: sgHSF1, 100 nM | 93.5 ± 21
sgRNA knockout: sgHSF1, 1000 nM | 133 ± 30
sgRNA knockout: sgHSF1, 10000 nM | 150 ± 16
sgRNA knockout: sgHSF2, 10 nM | 122 ± 11
sgRNA knockout: sgHSF2, 100 nM | 93.8 ± 11
sgRNA knockout: sgHSF2, 1000 nM | 121 ± 13
sgRNA knockout: sgHSF2, 10000 nM | 130 ± 15
sgRNA knockout: sgKEAP1, 10 nM | 149 ± 13
sgRNA knockout: sgKEAP1, 100 nM | 106 ± 18
sgRNA knockout: sgKEAP1, 1000 nM | 151 ± 14
sgRNA knockout: sgKEAP1, 10000 nM | 169 ± 37
sgRNA knockout: sgNFE2L2, 10 nM | 104 ± 6.9
sgRNA knockout: sgNFE2L2, 100 nM | 91.7 ± 6.9
sgRNA knockout: sgNFE2L2, 1000 nM | 108 ± 10
sgRNA knockout: sgNFE2L2, 10000 nM | 113 ± 13
sgRNA knockout: sgSLC35F2, 10 nM | 111 ± 1.9
sgRNA knockout: sgSLC35F2, 100 nM | 85.5 ± 3.9
sgRNA knockout: sgSLC35F2, 1000 nM | 117 ± 9.7
sgRNA knockout: sgSLC35F2, 10000 nM | 112 ± 16
sgRNA knockout: sgXBP1, 10 nM | 112 ± 4.4
sgRNA knockout: sgXBP1, 100 nM | 94.6 ± 10
sgRNA knockout: sgXBP1, 1000 nM | 120 ± 2.2
sgRNA knockout: sgXBP1, 10000 nM | 125 ± 20

COc1cc(-n2c(=S)[nH]c3ccccc3c2=O)c(Cl)cc1Cl [Mdivi1]
Conditions | relative cell number
sgRNA knockout: sgATF3, 10 nM | 101 ± 10
sgRNA knockout: sgATF3, 100 nM | 91.4 ± 8.4
sgRNA knockout: sgATF3, 1000 nM | 95.8 ± 7.8
sgRNA knockout: sgATF3, 10000 nM | 82.5 ± 2.8
sgRNA knockout: sgATF4, 10 nM | 105 ± 3.4
sgRNA knockout: sgATF4, 100 nM | 104 ± 14
sgRNA knockout: sgATF4, 1000 nM | 94.4 ± 22
sgRNA knockout: sgATF4, 10000 nM | 78.4 ± 14
sgRNA knockout: sgATF6, 10 nM | 107 ± 12
sgRNA knockout: sgATF6, 100 nM | 105 ± 6.6
sgRNA knockout: sgATF6, 1000 nM | 105 ± 3.6
sgRNA knockout: sgATF6, 10000 nM | 87.8 ± 8.3
sgRNA knockout: sgATG7, 10 nM | 97.4 ± 4.4
sgRNA knockout: sgATG7, 100 nM | 102 ± 6.9
sgRNA knockout: sgATG7, 1000 nM | 102 ± 10
sgRNA knockout: sgATG7, 10000 nM | 79.3 ± 5.1
sgRNA knockout: sgERN1, 10 nM | 81.5 ± 11
sgRNA knockout: sgERN1, 100 nM | 95.04 ± 0.68
sgRNA knockout: sgERN1, 1000 nM | 103 ± 13
sgRNA knockout: sgERN1, 10000 nM | 80.3 ± 14
sgRNA knockout: sgHSF1, 10 nM | 78.1 ± 3.1
sgRNA knockout: sgHSF1, 100 nM | 106 ± 4
sgRNA knockout: sgHSF1, 1000 nM | 97.1 ± 22
sgRNA knockout: sgHSF1, 10000 nM | 84.09 ± 0.53
sgRNA knockout: sgHSF2, 10 nM | 93.6 ± 4.2
sgRNA knockout: sgHSF2, 100 nM | 101.7 ± 0.9
sgRNA knockout: sgHSF2, 1000 nM | 98.2 ± 8.6
sgRNA knockout: sgHSF2, 10000 nM | 83.8 ± 4.2
sgRNA knockout: sgKEAP1, 10 nM | 106 ± 14
sgRNA knockout: sgKEAP1, 100 nM | 101 ± 1.8
sgRNA knockout: sgKEAP1, 1000 nM | 86.1 ± 8
sgRNA knockout: sgKEAP1, 10000 nM | 80.4 ± 5.1
sgRNA knockout: sgNFE2L2, 10 nM | 107 ± 6.6
sgRNA knockout: sgNFE2L2, 100 nM | 93.8 ± 10
sgRNA knockout: sgNFE2L2, 1000 nM | 102 ± 14
sgRNA knockout: sgNFE2L2, 10000 nM | 77.5 ± 12
sgRNA knockout: sgSLC35F2, 10 nM | 96.89 ± 0.58
sgRNA knockout: sgSLC35F2, 100 nM | 98.8 ± 20
sgRNA knockout: sgSLC35F2, 1000 nM | 102 ± 13
sgRNA knockout: sgSLC35F2, 10000 nM | 81.5 ± 14
sgRNA knockout: sgXBP1, 10 nM | 105 ± 7.6
sgRNA knockout: sgXBP1, 100 nM | 91.7 ± 16
sgRNA knockout: sgXBP1, 1000 nM | 95.9 ± 7.4
sgRNA knockout: sgXBP1, 10000 nM | 82.6 ± 7.3

CC(C)C[C@H](NC(=O)CNC(=O)c1cc(Cl)ccc1Cl)B(O)O [MLN2238]
Conditions | relative cell number
sgRNA knockout: sgATF3, 10 nM | 96.5 ± 6.4
sgRNA knockout: sgATF3, 100 nM | 58.1 ± 6.8
sgRNA knockout: sgATF3, 1000 nM | 8.52 ± 0.24
sgRNA knockout: sgATF3, 10000 nM | 5.52 ± 2.4
sgRNA knockout: sgATF4, 10 nM | 82.2 ± 12
sgRNA knockout: sgATF4, 100 nM | 51 ± 8.7
sgRNA knockout: sgATF4, 1000 nM | 5.95 ± 0.36
sgRNA knockout: sgATF4, 10000 nM | 4.74 ± 3.2
sgRNA knockout: sgATF6, 10 nM | 84.8 ± 1.4
sgRNA knockout: sgATF6, 100 nM | 50.4 ± 8.5
sgRNA knockout: sgATF6, 1000 nM | 9.26 ± 0.32
sgRNA knockout: sgATF6, 10000 nM | 3.65 ± 0.78
sgRNA knockout: sgATG7, 10 nM | 94.1 ± 11
sgRNA knockout: sgATG7, 100 nM | 58.9 ± 14
sgRNA knockout: sgATG7, 1000 nM | 9.09 ± 1.7
sgRNA knockout: sgATG7, 10000 nM | 6.67 ± 5.7
sgRNA knockout: sgERN1, 10 nM | 90.2 ± 11
sgRNA knockout: sgERN1, 100 nM | 50.9 ± 1.4
sgRNA knockout: sgERN1, 1000 nM | 6.6 ± 2.2
sgRNA knockout: sgERN1, 10000 nM | 3.71 ± 1.4
sgRNA knockout: sgHSF1, 10 nM | 84.3 ± 1.8
sgRNA knockout: sgHSF1, 100 nM | 41.9 ± 13
sgRNA knockout: sgHSF1, 1000 nM | 9.63 ± 2
sgRNA knockout: sgHSF1, 10000 nM | 5.42 ± 3.2
sgRNA knockout: sgHSF2, 10 nM | 96.71 ± 0.21
sgRNA knockout: sgHSF2, 100 nM | 62.2 ± 7.8
sgRNA knockout: sgHSF2, 1000 nM | 8.56 ± 2.9
sgRNA knockout: sgHSF2, 10000 nM | 4.29 ± 2.4
sgRNA knockout: sgKEAP1, 10 nM | 78.7 ± 7.8
sgRNA knockout: sgKEAP1, 100 nM | 57.7 ± 14
sgRNA knockout: sgKEAP1, 1000 nM | 6.76 ± 0.96
sgRNA knockout: sgKEAP1, 10000 nM | 6 ± 3.6
sgRNA knockout: sgNFE2L2, 10 nM | 77 ± 10
sgRNA knockout: sgNFE2L2, 100 nM | 44 ± 11
sgRNA knockout: sgNFE2L2, 1000 nM | 5.06 ± 0.75
sgRNA knockout: sgNFE2L2, 10000 nM | 3.57 ± 1.8
sgRNA knockout: sgSLC35F2, 10 nM | 96 ± 11
sgRNA knockout: sgSLC35F2, 100 nM | 53.2 ± 1.5
sgRNA knockout: sgSLC35F2, 1000 nM | 7.12 ± 0.12
sgRNA knockout: sgSLC35F2, 10000 nM | 5.39 ± 3.8
sgRNA knockout: sgXBP1, 10 nM | 75.3 ± 4.6
sgRNA knockout: sgXBP1, 100 nM | 41 ± 4.5
sgRNA knockout: sgXBP1, 1000 nM | 5.073 ± 0.023
sgRNA knockout: sgXBP1, 10000 nM | 4.43 ± 1.1
